Source: patent publication US20050209137A1 (published 2005)
These are yes or no findings as the source states them, for the method shown. Some entries that bind do so weakly or less than the wild type.

Biological target: T1, chicken leptin (chicken, UniProt O42164 19-163, limits assumed)
T1 sequence (looked up): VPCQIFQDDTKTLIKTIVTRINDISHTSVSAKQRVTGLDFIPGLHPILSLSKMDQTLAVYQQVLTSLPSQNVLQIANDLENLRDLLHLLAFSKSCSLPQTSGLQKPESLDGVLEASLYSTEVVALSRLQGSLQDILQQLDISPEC
Experiment: gel filtration and binding assays

binding: binds
B1: recombinant chicken leptin receptor binding domain (chLBD), amino acids 419-624 of the chicken leptin receptor (receptor)
chain: MAVDVNINIKCETDGYLTKMTCRWSANPNALLLGSSLQLRYHRSKIYCSNFPSTPPESEVKECHFQRNHSYECTFQPVFLLSGYTMWIELKHSLGTLESSPTCVVPADVVKPLPPSNIKAEITRNDGLLNVSWTNPVFTNDDLKFQIRYAVNREELTWELYEVLSVPTRSAVIEVQLCVEYIVQIRCRALDGLGYWSNWSRSAYAAVKD
notes: also called CLBD
